Assay results from publication PMC11162808.
Results are given in words; binding and its absence hold for the method and conditions named. In cells and extracts the contact can be indirect. Here binding means that the protein was enriched with, or labelled near, the bait; the list need not be complete.

Sequences of proteins named here, by UniProt entry; tags and fusion partners are left off.
UniProt O14497: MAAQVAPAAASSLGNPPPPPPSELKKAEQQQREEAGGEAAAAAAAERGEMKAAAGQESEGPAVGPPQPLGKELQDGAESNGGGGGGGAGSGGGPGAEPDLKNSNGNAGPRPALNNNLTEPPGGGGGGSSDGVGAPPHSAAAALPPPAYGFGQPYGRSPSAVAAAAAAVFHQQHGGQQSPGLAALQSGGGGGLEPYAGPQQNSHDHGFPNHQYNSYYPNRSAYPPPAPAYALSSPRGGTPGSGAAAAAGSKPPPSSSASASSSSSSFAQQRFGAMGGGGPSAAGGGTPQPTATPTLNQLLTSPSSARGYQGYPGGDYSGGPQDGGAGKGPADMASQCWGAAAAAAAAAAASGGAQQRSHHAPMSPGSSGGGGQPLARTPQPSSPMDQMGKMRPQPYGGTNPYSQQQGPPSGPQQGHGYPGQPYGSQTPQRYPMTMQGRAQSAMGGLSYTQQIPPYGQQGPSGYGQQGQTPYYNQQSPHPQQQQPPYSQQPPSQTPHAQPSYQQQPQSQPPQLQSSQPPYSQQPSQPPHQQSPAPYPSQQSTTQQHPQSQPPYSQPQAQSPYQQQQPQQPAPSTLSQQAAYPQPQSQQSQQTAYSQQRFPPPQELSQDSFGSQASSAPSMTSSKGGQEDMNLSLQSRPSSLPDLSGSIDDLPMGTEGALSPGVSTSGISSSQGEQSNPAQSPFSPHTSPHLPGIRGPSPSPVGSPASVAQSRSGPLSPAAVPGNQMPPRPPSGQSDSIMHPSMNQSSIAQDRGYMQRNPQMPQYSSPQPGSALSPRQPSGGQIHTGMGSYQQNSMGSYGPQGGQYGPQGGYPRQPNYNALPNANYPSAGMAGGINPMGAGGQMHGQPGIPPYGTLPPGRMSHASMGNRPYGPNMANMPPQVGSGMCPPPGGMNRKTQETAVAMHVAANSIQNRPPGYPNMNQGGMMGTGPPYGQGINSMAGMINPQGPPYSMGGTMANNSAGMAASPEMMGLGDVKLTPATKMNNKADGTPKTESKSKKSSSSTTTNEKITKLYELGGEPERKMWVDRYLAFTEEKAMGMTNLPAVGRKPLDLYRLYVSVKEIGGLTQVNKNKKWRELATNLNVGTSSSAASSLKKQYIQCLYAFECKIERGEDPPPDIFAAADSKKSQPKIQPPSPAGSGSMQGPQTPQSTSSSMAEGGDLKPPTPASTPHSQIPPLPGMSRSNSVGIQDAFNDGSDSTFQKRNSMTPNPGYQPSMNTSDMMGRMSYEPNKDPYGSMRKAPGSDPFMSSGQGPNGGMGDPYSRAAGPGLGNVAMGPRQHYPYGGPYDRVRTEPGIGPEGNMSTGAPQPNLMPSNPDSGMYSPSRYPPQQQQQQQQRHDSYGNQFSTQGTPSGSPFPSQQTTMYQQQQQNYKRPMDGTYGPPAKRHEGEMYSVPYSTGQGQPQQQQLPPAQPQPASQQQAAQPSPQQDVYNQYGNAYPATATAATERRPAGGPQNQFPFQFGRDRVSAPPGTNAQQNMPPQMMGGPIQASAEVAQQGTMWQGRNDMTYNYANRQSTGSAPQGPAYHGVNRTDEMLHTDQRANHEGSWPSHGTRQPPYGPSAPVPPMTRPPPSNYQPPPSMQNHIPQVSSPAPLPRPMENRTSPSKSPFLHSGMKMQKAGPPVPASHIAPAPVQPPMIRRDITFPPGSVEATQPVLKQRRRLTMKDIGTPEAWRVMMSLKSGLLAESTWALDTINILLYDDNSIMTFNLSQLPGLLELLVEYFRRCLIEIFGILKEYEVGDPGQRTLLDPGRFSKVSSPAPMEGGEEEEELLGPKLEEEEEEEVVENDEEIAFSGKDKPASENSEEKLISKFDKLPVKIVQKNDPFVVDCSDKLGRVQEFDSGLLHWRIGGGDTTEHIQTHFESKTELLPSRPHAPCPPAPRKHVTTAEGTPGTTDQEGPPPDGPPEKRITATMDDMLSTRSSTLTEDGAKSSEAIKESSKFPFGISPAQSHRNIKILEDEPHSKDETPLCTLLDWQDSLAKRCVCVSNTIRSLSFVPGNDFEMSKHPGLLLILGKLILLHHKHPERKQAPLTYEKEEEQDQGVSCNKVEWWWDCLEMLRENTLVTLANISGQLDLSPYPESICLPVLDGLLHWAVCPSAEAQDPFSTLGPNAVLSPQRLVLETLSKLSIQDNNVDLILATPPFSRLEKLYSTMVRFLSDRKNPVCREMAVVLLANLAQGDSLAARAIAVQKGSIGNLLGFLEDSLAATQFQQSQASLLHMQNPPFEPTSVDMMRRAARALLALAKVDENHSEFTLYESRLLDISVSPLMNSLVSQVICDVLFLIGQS
UniProt Q13547: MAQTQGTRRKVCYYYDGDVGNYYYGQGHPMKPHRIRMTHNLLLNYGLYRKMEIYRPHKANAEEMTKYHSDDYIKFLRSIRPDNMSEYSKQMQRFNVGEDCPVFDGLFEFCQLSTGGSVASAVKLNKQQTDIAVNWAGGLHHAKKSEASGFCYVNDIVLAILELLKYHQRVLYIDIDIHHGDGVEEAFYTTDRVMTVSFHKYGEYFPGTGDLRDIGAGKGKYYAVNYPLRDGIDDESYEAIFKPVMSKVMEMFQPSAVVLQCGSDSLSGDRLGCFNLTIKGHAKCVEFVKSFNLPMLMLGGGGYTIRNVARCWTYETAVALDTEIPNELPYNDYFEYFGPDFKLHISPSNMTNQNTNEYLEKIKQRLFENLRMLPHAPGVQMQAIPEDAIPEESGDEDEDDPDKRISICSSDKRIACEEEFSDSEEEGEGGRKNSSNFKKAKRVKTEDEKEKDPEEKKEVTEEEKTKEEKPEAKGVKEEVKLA

Molecular target: AT-rich interaction domain protein 1A (ARID1A) (human (endogenous in the paper's human cell lines; the line used for the IP is not stated)) (UniProt O14497)
Experiment: affinity purification with mass spectrometry; IP with anti-ARID1A (anti-IgG as control) from 1.5-2 mg benzonase-treated nuclear lysate (300 mM NaCl, 20 mM HEPES pH 7.5), protein A/G magnetic beads, washes with TBST; on-bead digest, label-free quantification, FDR <0.05, log2 fold change >2

Substance: HDAC1 (from UniProt Q13547 1-482)
- binding: binds
